This passage reports binding results from patent publication US20250136674A1 (KYOTO UNIVERSITY, published 2025).

Sequences of proteins named here, by UniProt entry; tags and fusion partners are left off. A change or cut given only in a name is not applied to a line headed by its entry. Residues count along the entry.
UniProt O75581: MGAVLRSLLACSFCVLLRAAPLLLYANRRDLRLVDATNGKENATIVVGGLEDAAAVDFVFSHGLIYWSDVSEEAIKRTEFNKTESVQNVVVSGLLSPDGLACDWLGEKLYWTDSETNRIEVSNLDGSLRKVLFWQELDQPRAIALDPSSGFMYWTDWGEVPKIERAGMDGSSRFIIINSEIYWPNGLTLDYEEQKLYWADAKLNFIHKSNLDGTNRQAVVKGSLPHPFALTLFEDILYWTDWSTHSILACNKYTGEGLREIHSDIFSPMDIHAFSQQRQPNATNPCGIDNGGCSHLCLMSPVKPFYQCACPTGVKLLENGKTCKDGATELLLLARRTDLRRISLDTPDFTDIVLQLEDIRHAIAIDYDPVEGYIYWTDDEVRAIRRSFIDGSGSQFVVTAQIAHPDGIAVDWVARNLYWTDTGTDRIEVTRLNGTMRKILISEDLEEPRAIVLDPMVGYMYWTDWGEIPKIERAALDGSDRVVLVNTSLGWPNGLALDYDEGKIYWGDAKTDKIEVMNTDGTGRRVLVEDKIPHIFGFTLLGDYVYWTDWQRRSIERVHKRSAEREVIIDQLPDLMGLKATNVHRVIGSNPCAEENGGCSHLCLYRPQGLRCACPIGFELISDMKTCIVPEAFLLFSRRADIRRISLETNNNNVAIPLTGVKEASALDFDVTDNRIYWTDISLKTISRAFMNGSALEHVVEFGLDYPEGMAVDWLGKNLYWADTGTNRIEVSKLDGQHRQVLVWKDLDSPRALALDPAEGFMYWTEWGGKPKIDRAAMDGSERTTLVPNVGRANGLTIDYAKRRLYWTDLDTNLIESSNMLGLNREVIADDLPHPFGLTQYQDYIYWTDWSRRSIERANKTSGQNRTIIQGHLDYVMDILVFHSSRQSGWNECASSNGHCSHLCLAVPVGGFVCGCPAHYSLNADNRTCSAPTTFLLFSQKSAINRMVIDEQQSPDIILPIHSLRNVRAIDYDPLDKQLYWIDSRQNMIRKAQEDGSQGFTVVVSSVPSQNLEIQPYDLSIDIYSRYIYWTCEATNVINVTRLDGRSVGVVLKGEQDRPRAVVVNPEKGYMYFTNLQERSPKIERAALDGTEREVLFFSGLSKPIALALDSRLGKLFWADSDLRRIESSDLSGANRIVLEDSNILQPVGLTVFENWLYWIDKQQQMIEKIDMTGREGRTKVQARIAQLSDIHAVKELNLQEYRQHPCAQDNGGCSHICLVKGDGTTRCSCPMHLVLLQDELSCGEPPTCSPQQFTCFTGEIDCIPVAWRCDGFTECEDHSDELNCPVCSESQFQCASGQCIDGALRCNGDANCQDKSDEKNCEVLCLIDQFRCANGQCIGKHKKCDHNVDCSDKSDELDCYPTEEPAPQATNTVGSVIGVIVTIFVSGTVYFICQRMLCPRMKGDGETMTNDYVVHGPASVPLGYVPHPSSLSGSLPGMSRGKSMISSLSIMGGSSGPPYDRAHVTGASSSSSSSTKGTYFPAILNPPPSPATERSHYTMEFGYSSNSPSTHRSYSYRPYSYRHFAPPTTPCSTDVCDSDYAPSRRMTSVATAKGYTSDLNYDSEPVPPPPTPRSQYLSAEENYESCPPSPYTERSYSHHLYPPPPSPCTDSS
UniProt Q9CQN4, residues 24-206: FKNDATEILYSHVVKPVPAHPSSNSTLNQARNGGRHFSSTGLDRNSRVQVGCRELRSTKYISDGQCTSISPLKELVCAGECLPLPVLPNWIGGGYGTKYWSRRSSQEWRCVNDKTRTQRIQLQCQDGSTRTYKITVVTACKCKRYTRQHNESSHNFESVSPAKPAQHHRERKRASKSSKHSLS

Results are given in words; binding and its absence hold for the method and conditions named. In cells and extracts the contact can be indirect. A result given as binding can be weak or reduced; the word gives no strength.

This test deals with LRP6-E1E2 (a region of amino acid numbers 1 to 629 of human LRP6, fused to a His tag) (human) (UniProt O75581). Nature of the test: co-precipitation of His-tagged LRP6-E1E2 with PA-tagged mouse USAG-1 (by NZ-1, or by anti-USAG-1 antibody on Protein A sepharose); SDS-PAGE, Oriole staining.

Take “N-terminal PA-tagged mouse USAG-1 (WISE) recombinant protein (from UniProt Q9CQN4 24-206) (ligand)”: the binding result is “binds”.
